Measurements reported in US12269805B2, “Inhibitors of platelet function and methods for use of the same” (THE REGENTS OF THE UNIVERSITY OF MICHIGAN, priority 2018, dated 2025).
At least one structure is not confirmed: it was looked up by name or label, or the drawing left a doubt. Some entries repeat one wording, which the source may state once for all of them.

Assays:
[1] = system: washed human platelets; assay: Platelet aggregation induced by thrombin or collagen (Lumi-aggregometer); format: cell-based
[2] = system: thrombus formation in cremaster arterioles; assay: Laser-induced cremaster arteriole thrombosis model; format: in vivo; conditions: WT mice, 6 mg/kg twice a day for 2 days

| Structure (SMILES) | Platelet aggregation [1] | Thrombus formation (platelet accumulation and fibrin formation, representative images) ([2]; FIG. 6) | Thrombus growth (platelet and fibrin accumulation, MFI over time) ([2]; FIG. 7 and 8) |
| --- | --- | --- | --- |
| O=C(OC[C@H]1CC[C@H](CSc2n[nH]c(=O)[nH]2)CC1)N(c1ccccc1)c1ccc(Cl)cc1 [Compound A1, ((1r,4r)-4-(((5-oxo-4,5-dihydro-1H-1,2,4-triazol-3-yl)thio)methyl)cyclohexyl)methyl (4-chlorophenyl)(phenyl)carbamate] | inhibit platelet aggregation |  |  |
| O=C(OCC1CCC(CCSc2n[nH]c(=O)[nH]2)CC1)N(c1ccccc1)c1ccc(Cl)cc1 (centres unmarked) [Compound A2, ((1s,4s)-4-(2-((5-Oxo-4,5-dihydro-1H-1,2,4-triazol-3-yl)thio)ethyl)cyclohexyl)methyl (4-chlorophenyl)(phenyl)carbamate] | inhibit platelet aggregation |  |  |
| CC(C)N(CCCCSc1n[nH]c(=O)[nH]1)c1cnc(-c2ccccc2)c(-c2ccccc2)n1 [Compound A3, 5-((4-((5,6-diphenylpyrazin-2-yl)(isopropyl)amino)butyl)thio)-2,4-dihydro-3H-1,2,4-triazol-3-one] | inhibit platelet aggregation | impairs thrombus formation | reduce thrombus growth |
